End groups of sequences in plain letters are not given here.

This data set can be described thus: general procedure: Fmoc solid-phase peptide synthesis; 2-chlorotrityl chloride resin. To be noted: oxidative folding step; for oxidative folding yield: HPLC peak area folded vs reduced.

GIPCGESCVWIPCISSAIGCSCKSKVCYRN: the difficulty met result was “negligible”.
Take GFPCGESCVYLPCFTAAIGCSCKSKVCYKN: the oxidative folding yield amounted to 44.7%.
With GIPCGESCVWLPCISSAIGCSCKSKVCYRN, the oxidative folding yield worked out at 30.8%.
GIPCGESCVWIPCLTSAVGCSCKSKVCYRN yielded an oxidative folding yield of 8.2%.
Sequence GTPCGESCVYLPCISGVIGCSCTDKVCYLN gave an oxidative folding yield of 13.3%.
GIPCGESCVWGPCLTSAVGCSCKSKVCYRN returned an oxidative folding yield of 59.2%.
On the same count and under the same terms, in the case of GIPCGESCVWGPCISSAIGCSCKSKVCYRN it was 51.6%.
For GIPCGESCVWLPCLTSAVGCSCKSKVCYRN, the oxidative folding yield was 27.3%.
GTPCGESCVYIPCISGVIGCSCTDKVCYLN: the difficulty met entry is reported as “negligible”.
Consider GFPCGESCVYIPCFTAAIGCSCKSKVCYKN, for which the difficulty met result is “negligible”.
In turn, GTPCGESCVYGPCISGVIGCSCTDKVCYLN had an oxidative folding yield of 50.5%.
In the case of GFPCGESCVYGPCFTAAIGCSCKSKVCYKN, the oxidative folding yield came out at 57.3%.

(Values after publication PMC8467136 (Molecules, 2021).)
